From PMC11277258
These are yes or no findings as the source states them, for the method shown. Binding seen in cells or lysates may run through a third protein. Some entries that bind do so weakly or less than the wild type.

Amino acid sequences for entries named in this document (tags omitted). Residues count along the entry.
UniProt P36021: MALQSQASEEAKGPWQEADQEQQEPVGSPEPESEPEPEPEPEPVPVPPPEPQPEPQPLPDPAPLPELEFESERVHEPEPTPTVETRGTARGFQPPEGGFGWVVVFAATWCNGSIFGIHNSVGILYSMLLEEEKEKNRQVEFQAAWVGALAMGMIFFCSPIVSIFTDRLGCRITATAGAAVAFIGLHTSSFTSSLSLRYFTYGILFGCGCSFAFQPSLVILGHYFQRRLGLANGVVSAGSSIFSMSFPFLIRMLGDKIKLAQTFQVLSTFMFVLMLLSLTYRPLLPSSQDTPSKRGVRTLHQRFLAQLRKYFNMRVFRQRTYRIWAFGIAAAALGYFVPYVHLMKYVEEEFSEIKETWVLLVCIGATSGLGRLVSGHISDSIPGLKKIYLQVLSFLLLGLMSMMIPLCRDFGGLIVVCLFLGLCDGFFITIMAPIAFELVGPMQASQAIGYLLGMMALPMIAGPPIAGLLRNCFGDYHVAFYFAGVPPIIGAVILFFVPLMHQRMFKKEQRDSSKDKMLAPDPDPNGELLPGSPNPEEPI
UniProt Q9NRW1: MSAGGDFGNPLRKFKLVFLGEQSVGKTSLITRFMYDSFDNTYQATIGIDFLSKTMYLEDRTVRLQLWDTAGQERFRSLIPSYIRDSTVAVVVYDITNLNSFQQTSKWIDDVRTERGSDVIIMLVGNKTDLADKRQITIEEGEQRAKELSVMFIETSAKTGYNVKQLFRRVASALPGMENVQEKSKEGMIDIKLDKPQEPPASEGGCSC
UniProt P32245: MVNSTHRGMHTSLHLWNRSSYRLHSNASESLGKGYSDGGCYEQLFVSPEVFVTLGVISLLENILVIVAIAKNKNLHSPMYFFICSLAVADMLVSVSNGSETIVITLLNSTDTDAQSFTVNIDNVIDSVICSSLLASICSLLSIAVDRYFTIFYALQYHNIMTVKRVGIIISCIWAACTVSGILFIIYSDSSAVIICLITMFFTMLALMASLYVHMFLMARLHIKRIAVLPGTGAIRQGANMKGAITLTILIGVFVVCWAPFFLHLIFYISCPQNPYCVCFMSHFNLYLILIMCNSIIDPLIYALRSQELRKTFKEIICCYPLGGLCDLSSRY
UniProt P16473, residues 21-764: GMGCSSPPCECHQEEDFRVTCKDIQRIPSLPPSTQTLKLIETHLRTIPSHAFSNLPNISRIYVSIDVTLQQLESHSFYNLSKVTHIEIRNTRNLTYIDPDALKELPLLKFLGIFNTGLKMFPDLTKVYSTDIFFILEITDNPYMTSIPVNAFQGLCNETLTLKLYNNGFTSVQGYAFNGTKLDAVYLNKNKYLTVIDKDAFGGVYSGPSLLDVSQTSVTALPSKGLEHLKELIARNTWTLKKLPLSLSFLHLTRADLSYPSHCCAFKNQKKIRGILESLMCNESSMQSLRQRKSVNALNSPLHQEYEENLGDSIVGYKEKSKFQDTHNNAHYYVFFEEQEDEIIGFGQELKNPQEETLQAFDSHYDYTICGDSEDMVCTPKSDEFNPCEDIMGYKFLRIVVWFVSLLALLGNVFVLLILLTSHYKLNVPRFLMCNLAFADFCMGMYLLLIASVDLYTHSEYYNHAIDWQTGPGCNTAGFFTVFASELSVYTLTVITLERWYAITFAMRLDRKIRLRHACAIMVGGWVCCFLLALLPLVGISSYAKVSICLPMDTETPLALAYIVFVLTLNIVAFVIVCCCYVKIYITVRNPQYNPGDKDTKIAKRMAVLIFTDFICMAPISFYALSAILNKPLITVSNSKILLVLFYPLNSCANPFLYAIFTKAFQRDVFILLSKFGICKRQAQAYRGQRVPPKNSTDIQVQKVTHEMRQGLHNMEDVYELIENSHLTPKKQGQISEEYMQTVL

Tests used:
[1] = molecular target: monocarboxylate transporter 8, C-terminally tagged with HaloTag (MCT8-HT) (human) (UniProt P36021); test: FRET or BRET; NanoBRET Donor Saturation Assay in HEK293 cells; increasing amount of donor (MC4R-NL, Rab6b-NL, TSHR-NL) with constant amount of acceptor (MCT8-HT)
[2] = molecular target: monocarboxylate transporter 8, C-terminally tagged with HaloTag (MCT8-HT) (human) (UniProt P36021); test: FRET or BRET; NanoBRET in live HEK293 cells; donor (NL-tagged) and acceptor (MCT8-HT) DNA co-transfected 1:8 (100 ng:800 ng); HT-Ligand 618; emission at 460 nm and 618 nm; DMSO background subtracted; mBU

Substance | binding [1] | binding [2]
Ras-related protein Rab6b, C-terminally tagged with NanoLuc (Rab6b-NL) (from UniProt Q9NRW1 1-208) | no binding | –
melanocortin-4 receptor, C-terminally tagged with NanoLuc (MC4R-NL) (from UniProt P32245 1-332) | binds | –
thyroid-stimulating hormone receptor, C-terminally tagged with NanoLuc (TSHR-NL) (from UniProt P16473 21-764) | binds | binds
